{"source": "PubChem BioAssay AID504784 (Drosophila RNAi Screening Center, 2011)", "screen": "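Fly genes whose silencing alters how much lipid cells keep in droplets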 (primary screen)", "cell system": "Drosophila Kc167 embryonic cells", "knock-down reagent": "long dsRNA against Drosophila genes, about 250 ng dsRNA per well", "duration": "4 days", "treatment": "cells fed 400 µM oleic acid bound to BSA", "detection": "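Cells imaged and segmented; ratio of lipid droplet area to nuclear area, log-transformed, then normalised as a B-score over the screen; higher means more stored lipid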", "reading the numbers": "droplet/nuclear area B-score: higher = more stored lipid (overstorage)", "note": "The screen tested about 17,000 reagents; below is a random part of those with a known target gene and a result. 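Each column is one replicate's B-score; the combined score over replicates was not deposited, so single values may mislead.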 Reagents against one gene are numbered here. Not all columns of the deposit are shown."}
{"Target gene": "CG4238", "reagent no.": 1, "droplet/nuclear area B-score, replicate 1": 0.461}
{"Target gene": "Uros2 (Uroporphyrinogen III synthase 2)", "reagent no.": 1, "droplet/nuclear area B-score, replicate 1": -2.25}
{"Target gene": "Coa8 (Cytochrome c oxidase assembly factor 8)", "reagent no.": 1, "droplet/nuclear area B-score, replicate 1": -1.28}
{"Target gene": "CG31360", "reagent no.": 1, "droplet/nuclear area B-score, replicate 1": 0.543}
{"Target gene": "M1BP (Motif 1 Binding Protein)", "reagent no.": 1, "droplet/nuclear area B-score, replicate 1": -2.48}
{"Target gene": "Nse4 (Non-SMC element 4)", "reagent no.": 1, "droplet/nuclear area B-score, replicate 1": 0.395}
{"Target gene": "sac (sterile affecting ciliogenesis)", "reagent no.": 1, "droplet/nuclear area B-score, replicate 1": 0.241}
{"Target gene": "Saf6 (SAGA factor-like TAF6)", "reagent no.": 1, "droplet/nuclear area B-score, replicate 1": 0.858}
{"Target gene": "CG11693", "reagent no.": 1, "droplet/nuclear area B-score, replicate 1": -1.98}
{"Target gene": "hwt (heavyweight)", "reagent no.": 1, "droplet/nuclear area B-score, replicate 1": -1.46}
{"Target gene": "Nemp (Nuclear envelope integral membrane protein)", "reagent no.": 1, "droplet/nuclear area B-score, replicate 1": 0.556}
{"Target gene": "Ran-like", "reagent no.": 1, "droplet/nuclear area B-score, replicate 1": 0.503}
{"Target gene": "CG7120", "reagent no.": 1, "droplet/nuclear area B-score, replicate 1": -0.193}
{"Target gene": "CG2681", "reagent no.": 1, "droplet/nuclear area B-score, replicate 1": -0.118}
{"Target gene": "msl-3 (male-specific lethal 3)", "reagent no.": 1, "droplet/nuclear area B-score, replicate 1": 0.679}
{"Target gene": "Cpr47Ee (Cuticular protein 47Ee)", "reagent no.": 1, "droplet/nuclear area B-score, replicate 1": 0.731}
{"Target gene": "Cpr47Ee (Cuticular protein 47Ee)", "reagent no.": 2, "droplet/nuclear area B-score, replicate 1": -0.686}
{"Target gene": "eas (easily shocked)", "reagent no.": 1, "droplet/nuclear area B-score, replicate 1": -1.08}
{"Target gene": "Or88a (Odorant receptor 88a)", "reagent no.": 1, "droplet/nuclear area B-score, replicate 1": -0.0421}
{"Target gene": "CG12341", "reagent no.": 1, "droplet/nuclear area B-score, replicate 1": -0.21}
{"Target gene": "CG33514", "reagent no.": 1, "droplet/nuclear area B-score, replicate 1": 0.689}
{"Target gene": "CG33514", "reagent no.": 2, "droplet/nuclear area B-score, replicate 1": 0.209}
{"Target gene": "CG33514", "reagent no.": 3, "droplet/nuclear area B-score, replicate 1": 0.442}
{"Target gene": "fun (retired record)", "reagent no.": 1, "droplet/nuclear area B-score, replicate 1": 0.203}
{"Target gene": "glu (gluon)", "reagent no.": 1, "droplet/nuclear area B-score, replicate 1": 0.4}
{"Target gene": "c12.1", "reagent no.": 1, "droplet/nuclear area B-score, replicate 1": -1.45}
{"Target gene": "CG8407", "reagent no.": 1, "droplet/nuclear area B-score, replicate 1": -1.21}

A portion taken from the entries so far:
{"Target gene": "Uros2 (Uroporphyrinogen III synthase 2)", "reagent no.": 1, "droplet/nuclear area B-score, replicate 1": -2.25}
{"Target gene": "Coa8 (Cytochrome c oxidase assembly factor 8)", "reagent no.": 1, "droplet/nuclear area B-score, replicate 1": -1.28}
{"Target gene": "CG31360", "reagent no.": 1, "droplet/nuclear area B-score, replicate 1": 0.543}
